PubChem BioAssay AID1259254, NCATS, 2017
The whole screen tested about 59,000 reagents; below is a random part of them. About 1,550 of all reagents (2.6%) were called active. 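G2 share is only a proxy for re-replication; each gene was hit by three separate siRNAs, and active genes were retested.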 The raw values are shown without normalisation. Unmarked entries are inactive. Reagents against one gene are numbered here. No sequences are given here. Not given: the amount of reagent.

- Screen: 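Genome-wide screen for genes that prevent DNA re-replication in cancer cells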 (primary screen)
- Cells: human HCT116 colorectal cancer cells
- Knock-down reagent: single siRNA against human genes
- Time to read-out: 3 days
- Read-out: 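Nuclei stained with Hoechst and imaged; cell-cycle phase assigned by DNA content; G2 share scaled per plate, non-targeting siRNA 0%, GMNN siRNA 100%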
- Reading the numbers: G2 robust z-score and G2 cells, % of GMNN control: higher = more G2 cells, more excess DNA replication; raw share of cells in G2: higher = larger share of cells with G2 DNA content
- Hit rule: 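An siRNA counts as active if its G2 robust z-score lies at least 5 MADs above the screen median; here such calls match roughly 38% of GMNN control or more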

target gene | siRNA no. | G2 robust z-score | G2 cells, % of GMNN control | raw share of cells in G2 (%)
FAM171A1 | 1 | -0.171 | 1.76 | 4.22
FAM171A1 | 2 | -0.0441 | 2.66 | 4.04
FAM171A1 | 3 | -0.473 | -0.359 | 3.08
USP2 | 1 | 0.956 | 9.69 | 8.94
USP2 | 2 | -0.596 | -1.22 | 4.47
USP2 | 3 | 0.0517 | 3.33 | 5.15
EFCC1 | 1 | 1.02 | 10.1 | 8.08
EFCC1 | 2 | 2.58 | 21.1 | 10.4
EFCC1 | 3 | 7.1 (active) | 52.9 | 22.5
EFCC1 | 4 | -0.747 | -2.29 | 3.5
EFCC1 | 5 | -0.656 | -1.65 | 3.58
EFCC1 | 6 | -0.534 | -0.793 | 2.16
MYL6B | 1 | -1.31 | -6.28 | 2.06
MYL6B | 2 | -0.476 | -0.38 | 4.56
MYL6B | 3 | -0.822 | -2.81 | 4.61
ATCAY | 1 | 0.953 | 9.67 | 8.19
ATCAY | 2 | 0.399 | 5.77 | 4.81
ATCAY | 3 | 0.0395 | 3.25 | 3.95
PACC1 | 1 | -1.33 | -6.4 | 2.07
PACC1 | 2 | -0.346 | 0.531 | 4.36
PACC1 | 3 | -0.135 | 2.02 | 3.78
ZNF410 | 1 | -0.157 | 1.87 | 4.9
ZNF410 | 2 | 2.66 | 21.7 | 14.6
ZNF410 | 3 | -0.176 | 1.73 | 4.96
TUBAL3 | 1 | 0.244 | 4.68 | 6.52
TUBAL3 | 2 | -0.328 | 0.659 | 4.43
TUBAL3 | 3 | 0.483 | 6.37 | 8.08
TRAIP | 1 | 7.9 (active) | 58.5 | 22.8
TRAIP | 2 | 0.42 | 5.92 | 8.27
TRAIP | 3 | 13.3 (active) | 96.5 | 44.5
ZNF117 | 1 | -0.795 | -2.63 | 1.86
ZNF117 | 2 | 3.58 | 28.1 | 18.6
ZNF117 | 3 | 2.57 | 21 | 10.2
ZMYM1 | 1 | 0.415 | 5.89 | 6.89
ZMYM1 | 2 | 0.96 | 9.72 | 8.55
ZMYM1 | 3 | -0.966 | -3.83 | 1.33
AP1G1 | 1 | -0.723 | -2.12 | 4
AP1G1 | 2 | 0.808 | 8.65 | 7.21
AP1G1 | 3 | 0.487 | 6.4 | 7.35
POU6F1 | 1 | -0.363 | 0.417 | 3.63
POU6F1 | 2 | -0.93 | -3.58 | 3.17
POU6F1 | 3 | -0.612 | -1.34 | 2.62

Targets above whose target name begins with Z or z (9):
target gene | siRNA no. | G2 robust z-score | G2 cells, % of GMNN control | raw share of cells in G2 (%)
ZNF410 | 1 | -0.157 | 1.87 | 4.9
ZNF410 | 2 | 2.66 | 21.7 | 14.6
ZNF410 | 3 | -0.176 | 1.73 | 4.96
ZNF117 | 1 | -0.795 | -2.63 | 1.86
ZNF117 | 2 | 3.58 | 28.1 | 18.6
ZNF117 | 3 | 2.57 | 21 | 10.2
ZMYM1 | 1 | 0.415 | 5.89 | 6.89
ZMYM1 | 2 | 0.96 | 9.72 | 8.55
ZMYM1 | 3 | -0.966 | -3.83 | 1.33

Next entries follow.
target gene | siRNA no. | G2 robust z-score | G2 cells, % of GMNN control | raw share of cells in G2 (%)
RLN1 | 1 | -1.42 | -7.04 | 1.8
RLN1 | 2 | -0.508 | -0.608 | 4.77
RLN1 | 3 | 1.89 | 16.2 | 10.9
TBC1D4 | 1 | 4.99 | 38.1 | 22.5
TBC1D4 | 2 | 2.02 | 17.1 | 11.1
TBC1D4 | 3 | 1.36 | 12.6 | 7.98
ZNF770 | 1 | -0.0344 | 2.73 | 4.58
ZNF770 | 2 | -0.156 | 1.87 | 5.06
ZNF770 | 3 | -0.454 | -0.228 | 3.12
FGF7P7 | 1 | 0.0417 | 3.26 | 4.78
FGF7P7 | 2 | -0.855 | -3.05 | 1.8
FGF7P7 | 3 | -0.73 | -2.17 | 2.78
SPRY4 | 1 | 1.14 | 11 | 8.85
SPRY4 | 2 | 0.447 | 6.11 | 6.41
SPRY4 | 3 | 4.14 | 32.1 | 18.8
DUOXA1 | 1 | 2.76 | 22.4 | 13.6
DUOXA1 | 2 | 1.41 | 12.9 | 7.03
DUOXA1 | 3 | -0.512 | -0.637 | 2.72
SIVA1 | 1 | -0.983 | -3.95 | 3.98
SIVA1 | 2 | 1.79 | 15.5 | 8.87
SIVA1 | 3 | 0.599 | 7.18 | 9.31
TAGLN | 1 | 0.452 | 6.15 | 7.75
TAGLN | 2 | 0.538 | 6.75 | 6.19
TAGLN | 3 | 1.33 | 12.4 | 8.78
RLIG1 | 1 | -0.298 | 0.871 | 4.45
RLIG1 | 2 | 2.82 | 22.8 | 10.2
RLIG1 | 3 | 0.465 | 6.24 | 4.9
